Results reported in article PMC3734102.
No constants are given. Whether binding was seen depends on the method and setting. In cells and extracts the contact can be indirect. Some results given as binding are weak or reduced against the parent protein; the word gives no strength. Sequences can lack the tags named with a protein.

T1: Cdc27p-9myc (S. cerevisiae) (UniProt P38042)
T1 sequence: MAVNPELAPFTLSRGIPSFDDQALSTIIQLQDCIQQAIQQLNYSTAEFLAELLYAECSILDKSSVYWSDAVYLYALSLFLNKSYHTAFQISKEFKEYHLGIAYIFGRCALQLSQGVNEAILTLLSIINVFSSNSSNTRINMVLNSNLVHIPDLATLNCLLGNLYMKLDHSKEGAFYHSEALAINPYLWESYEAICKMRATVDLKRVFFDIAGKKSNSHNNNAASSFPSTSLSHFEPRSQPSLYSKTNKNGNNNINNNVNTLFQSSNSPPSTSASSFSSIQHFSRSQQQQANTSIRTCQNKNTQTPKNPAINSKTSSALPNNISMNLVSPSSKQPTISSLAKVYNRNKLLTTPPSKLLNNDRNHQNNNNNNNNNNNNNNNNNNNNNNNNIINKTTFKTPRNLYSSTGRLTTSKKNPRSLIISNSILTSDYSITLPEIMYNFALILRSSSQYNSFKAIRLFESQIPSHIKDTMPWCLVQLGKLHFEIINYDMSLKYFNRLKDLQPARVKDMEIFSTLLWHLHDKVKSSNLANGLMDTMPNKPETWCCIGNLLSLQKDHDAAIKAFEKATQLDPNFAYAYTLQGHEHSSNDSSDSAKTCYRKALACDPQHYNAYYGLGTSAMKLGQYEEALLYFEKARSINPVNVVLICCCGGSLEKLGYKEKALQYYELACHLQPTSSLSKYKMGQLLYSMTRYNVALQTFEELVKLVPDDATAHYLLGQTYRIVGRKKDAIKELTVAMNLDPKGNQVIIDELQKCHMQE


Columns and labels:
[1] = target: T1, Cdc27p-9myc (S. cerevisiae); assay: co-IP; Cdc27-9myc strain KCY328 with Ama1p-T7 plasmids, cells harvested 12 h after transfer to sporulation medium (meiosis); 1 mg soluble protein; immunoprecipitation and immunoblot; which protein was precipitated is not told
[2] = target: T1, Cdc27p-9myc (S. cerevisiae); assay: co-IP; Cdc27-9myc strain RSY1337 with GST or GST-Ama1p fusion plasmids, grown in raffinose/galactose medium to induce the fusion genes; 1 mg soluble protein; immunoprecipitation and immunoblot, with a no-antibody mock immunoprecipitation

Row | Binder | binding [1] | binding [2]
1 | Ama1p-T7 (protein, UniProt P50082 1-593) MATPHLYHRYNSKSSNKNINSSGNSTEVDRFIPKSVSRNAYKSIPMLNGFDISYSELCEKSPSPERLSSPEFFNELRNTGHYESISTTNEFSMSSISSSSESQVTRSGSARASRNDYSKLTKEQKDHRKNIAHSLGFQLPDRVFTFETTSAEILEKNKAIKNCFGPGSCAEIRSTFDFSTLSPDVARYYIANSNARSASPQRQIQRPAKRVKSHIPYRVLDAPCLRNDFYSNLISWSRTTNNVLVGLGCSVYIWSEKEGAVSILDHQYLSEKRDLVTCVSFCPYNTYFIVGTKFGRILLYDQKEFFHSSNTNEKEPVFVFQTESFKGICCLEWFKPGEICKFYVGEENGNVSLFEIKSLHFPIKNWSKRQKLEDENLIGLKLHSTYQAQAQQVCGISLNEHANLLAVGGNDNSCSLWDISDLDKPIKKFVLPHKAAVKAIAFCPWSKSLLATGGGSKDRCIKFWHTSTGTLLDEICTSGQVTSLIWSLRHKQIVATFGFGDTKNPVLITLYSYPKLSKLLEVRSPNPLRVLSAVISPSSMAICVATNDETIRFYELWNDKEEIINEIQESGIYGSNIIEYMEGIETTHNKRIR | binds | 
2 | GST-Ama1p^1-200 (domain or fragment, UniProt P50082 1-200) MATPHLYHRYNSKSSNKNINSSGNSTEVDRFIPKSVSRNAYKSIPMLNGFDISYSELCEKSPSPERLSSPEFFNELRNTGHYESISTTNEFSMSSISSSSESQVTRSGSARASRNDYSKLTKEQKDHRKNIAHSLGFQLPDRVFTFETTSAEILEKNKAIKNCFGPGSCAEIRSTFDFSTLSPDVARYYIANSNARSASP |  | binds
